The text below walks through data of paper PMC11497800.

The exact form of at least one protein or probe is not confirmed.

The data set relates to sigma70-saturated RNA polymerase holoenzyme (Escherichia coli). The data set is described as follows: EMSA. The following applies: with bssA promoter and recA fragment as competitors; 25 C, 30 min; Novex 6% DNA retardation gel, ethidium bromide; commercial protein; label: none (ethidium bromide stain); probe letters rebuilt from the primers and the genome.

“ACACCGGCCAGAACTATGGCCATGGCAAGGATAAGCCTGATCTTTTTCGGTCTCAGCATAATTTACCGGAAGTATAGCATCATAAAAAATGGCTGTAAAGCGCTTTGTGGCGGGCAATTAAAAATTTGGCATGGAGATTGAAGAAGGATAAAAACCGGGTGAAGGAACAGCGGAAAAGCAAGTAAAAAATGGTATCAGATCGGGCTCATTTGTAATAACGGTCCGTTATCTCTCCCCATACCCCCTGCTCCTTGAGAAGAAGATCACAAACCTCGCGAACTGCGCCCCAGCCACCTCGATTTCTAGTCACAAAATGGGCGTGAGGAATAACTTCCGCCACGGCGTCGGCAGGTGCAGCAGCAAAACCGGCCCGCCTCATAACAGGGATATCAATCACGTCATCACCGACAAAAGCTACCTGAGAATGGTCCAGACCGGTCGCCTCCAGTATCTTAAGATACGGTGTCAGCTTGTCCAGACACTTCTGATAAACGATGCCGATAGCGAGCTC (double strand) [rpoN operon promoter]”: the binding result was “binds”.
